Test results taken from PubChem BioAssay AID504444 (National Center for Advancing Translational Sciences (NCATS), 2011).
Among all 360,000 compounds or so, about 7,500 (2.1%) were called active. This list was built around the results that the source calls inconclusive (neither active nor inactive); the mix of calls is not that of the screen. Calls come from the whole dose curve; as a rule, active = well fitted inhibition curve with a large enough effect; inconclusive = small, poorly fitted or top-dose-only effect, or effect the other way; inactive = flat fitted curve, though single readings scatter. A potency beside an inconclusive call is a rough fit, not a confirmed value.

assay: Nrf2 qHTS screen for inhibitors; settings: A549 ARE-Fluc reporter, luciferase luminescence, 18-24 h; activity change, negative = inhibition: at 46 µM (top of the series); note: nearly all actives have a fitted effect of over 60% in size
Summary of the method: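 Concentration-response testing used A549 ARE_Fluc cells at 5000 cells/well. Following an 18-24 h compound incubation, viability was read by fluorescence (Ex 405/Em 525) and luciferase output by luminescence.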
% is set by controls: 0 for no effect and ±100 for the full control effect; potency is the fitted concentration of half-maximal effect.

Structure (SMILES) | Potency | activity change, negative = inhibition
C[C@]12c3[nH]c4cc(-c5ccco5)ccc4c3CCN1C(=O)[C@@H](CC(=O)NCc1cccc(C(F)(F)F)c1)C[C@@H]2C(=O)N1CCCCC1 | inconclusive: 29.1 µM [falling, single point] | 
c1ccc(-c2csc3ncnc(NCc4ccccn4)c23)cc1 | inconclusive: 16.4 µM [falling, partial curve] | 
O=C(/C=C/c1ccc(Cl)cc1)Nc1nccs1 | inconclusive: 8.2 µM [activator, partial curve] | 
Cc1oc(-c2ccc(C(=O)NC(C)c3ccccc3)cc2)nc1CS(=O)(=O)c1ccccc1 (configuration not stated) |  | inactive: -8.48%
C=CCCC1CN(Cc2ccco2)S(=O)(=O)c2c(F)cccc2O1 (configuration not stated) |  | inactive: 12%
COC(=O)c1ccccc1NC(=O)CCCN1C(=O)C(c2ccccc2)Oc2cccnc21 (configuration not stated) | inconclusive: 32.6 µM [falling, single point] | 
CCOC(=O)c1ccc(NC(=S)N2CCSC2c2ccc(Br)cc2)cc1 (configuration not stated) | inconclusive: 25.9 µM [falling, partial curve, poor fit] | 
CCC(C)(C)n1nnnc1C(c1cc2ccc(C)cc2[nH]c1=O)N(Cc1cccnc1)Cc1ccco1 (configuration not stated) | inconclusive: 16.4 µM [falling, single point] | 
Cc1cc2ncn(CC3CC3(Cl)Cl)c2cc1C (configuration not stated) | inconclusive: 29.1 µM [falling, single point] | 
CCCCc1ccc(-c2ccc(Br)cc2O)nc1 | inconclusive: 29.1 µM [activator, single point] | 
COc1ncccc1-c1nnn(-c2ccc(Cl)nc2)n1 | inconclusive: 25.9 µM [activator, single point] | 
Cc1nnc(N2CCN(Cc3ccccc3)CC2)[nH]c1=O | inconclusive: 32.6 µM [activator, single point] | 
CCOC(=O)C1=C(O)/C(=C/c2ccc(-c3ccccc3C(=O)O)o2)SC1=Nc1ccc(C)cc1 |  | inactive: -11.7%
CCOc1ccccc1NC(=O)n1ncc2cc(Cl)ccc21 |  | inactive: -5.94%
COc1ccccc1NS(=O)(=O)c1cn(C)cn1 | inconclusive: 23.1 µM [activator, partial curve] | 
O=C(Nc1ccc2c(c1)OCCO2)N1CCN(Cc2ccccc2)CC1 | inconclusive: 14.6 µM [activator, partial curve] | 
COc1cc(Cl)ccc1OCc1cc(C(=O)N2CCCCCC2)no1 | inconclusive: 23.1 µM [activator, partial curve] | 
CCCn1nnc(NC(=O)c2ccc(Cl)cc2Cl)n1 | inconclusive: 2.51 µM [activator, full curve, poor fit] | 
NNC(=O)c1cc2ccccc2[nH]1 | inconclusive: 18.4 µM [activator, single point] | 
Fc1ccc(-c2cn3cc(Cc4ccccc4Cl)sc3n2)cc1 | inconclusive: 2.31 µM [activator, partial curve] | 
Cc1ccc(NC(=O)CCCN2C(=O)c3cccc4cccc(c34)C2=O)cc1 | active: 14.6 µM | 

Structure (SMILES) | Potency | activity change, negative = inhibition
CCn1nc(C)c(CNC(=O)c2ccc(OC3CCN(Cc4ccccn4)CC3)cc2)c1C | active: 1.46 µM | 
CC1=C(c2ccc(C)cc2)S(=O)(=O)N(Cc2ccc(C(=O)Nc3ccccc3C)cc2)C1=O | inconclusive: 14.6 µM [falling, partial curve, poor fit] | 
C[n+]1c2n(c3ccccc31)N=C(c1ccc(-c3ccccc3)cc1)CS2 | active: 10.3 µM | 
CC(C)Oc1ccc(C(=O)Nc2cccc(S(=O)(=O)N3CCCC3)c2)cc1 | inconclusive: 29.1 µM [falling, single point] | 
CCCN1CCC(=O)N([C@H](CSc2ccccc2)CC(C)C)CC1 | inconclusive: 9.2 µM [activator, partial curve] | 
Cc1ccc(/C=N/Nc2nc(C(C)(C)C)cs2)o1 | inconclusive: 0.0291 µM [falling, full curve, poor fit] | 
CC1(C)CC2CC(C)(CN2/C=N/c2sc3c(c2C#N)CC(C)(C)NC3(C)C)C1 (configuration not stated) | inconclusive: 1.16 µM [falling, full curve, poor fit] | 
O=C(Nc1ccccn1)c1cccs1 | inconclusive: 23.1 µM [activator, single point] | 
Cc1ccc(CNC(=O)Nc2ccccc2)n1C | inconclusive: 29.1 µM [activator, single point] | 
CN(C)c1ccc(N/C=C/C(=O)c2ccco2)cc1 | inconclusive: 3.66 µM [activator, partial curve, poor fit] | 
COc1ccc(-n2cc(C(=O)N(C)c3cc(C)ccc3OC)c3ccccc3c2=O)cc1 |  | inactive: 11.5%
CC(C)c1ccc(NC2CCCN(C(=O)c3ccsc3)C2)cc1 (configuration not stated) | inconclusive: 29.1 µM [falling, single point] | 
COc1ccc(-n2nnnc2SCC(=O)Nc2cc(OC)c([N+](=O)[O-])cc2C)cc1 | inconclusive: 29.1 µM [falling, single point] | 
O=C(COc1ccc(S(=O)(=O)N2CCCCC2)cc1Cl)N1CCOCC1 | inconclusive: 7.31 µM [falling, partial curve, poor fit] | 
CCOC(=O)C1CCN(C(=O)CCc2c(C)nc3cc(-c4ccccc4)nn3c2C)CC1 | inconclusive: 5.8 µM [falling, partial curve, poor fit] | 
CCc1ccc(C2CC(c3ccco3)=NN2S(C)(=O)=O)cc1 (configuration not stated) | inconclusive: 2.31 µM [activator, full curve] | 
Cc1cccc(NC(=O)C2CCN(S(=O)(=O)c3cccs3)CC2)n1 | inconclusive: 25.9 µM [falling, partial curve] | 
COc1cc(C(=O)OCC(=O)Nc2cc(C)on2)ccc1OCc1ccccc1Cl | inconclusive: 5.8 µM [activator, single point] | 
CCc1noc(C)c1C(=O)N1CCC(CCC(=O)Nc2cccc(C)c2)CC1 | inconclusive: 18.4 µM [falling, partial curve, poor fit] | 
Cc1ccc(C(=O)CSc2ccccn2)cc1 | inconclusive: 23.1 µM [activator, single point] | 
O=C(O)CCC(=O)Nc1cccc(C(=O)Nc2ccc(Br)cc2)c1 | inconclusive: 2.31 µM [activator, full curve] | 

Full records, quoted from the list:
Cc1cccc(NC(=O)C2CCN(S(=O)(=O)c3cccs3)CC2)n1 in the list: Potency: inconclusive: 25.9 µM [falling, partial curve]
COc1ccc(-n2nnnc2SCC(=O)Nc2cc(OC)c([N+](=O)[O-])cc2C)cc1 in the list: Potency: inconclusive: 29.1 µM [falling, single point]
COc1cc(Cl)ccc1OCc1cc(C(=O)N2CCCCCC2)no1 in the list: Potency: inconclusive: 23.1 µM [activator, partial curve]
